PMC3514159
No constants are given. Whether binding was seen depends on the method and setting. In cells and extracts the contact can be indirect. Some entries that bind do so weakly or less than the wild type.

Protein sequences, listed by entry. Tags and fused reporters are not part of them.
UniProt P09022: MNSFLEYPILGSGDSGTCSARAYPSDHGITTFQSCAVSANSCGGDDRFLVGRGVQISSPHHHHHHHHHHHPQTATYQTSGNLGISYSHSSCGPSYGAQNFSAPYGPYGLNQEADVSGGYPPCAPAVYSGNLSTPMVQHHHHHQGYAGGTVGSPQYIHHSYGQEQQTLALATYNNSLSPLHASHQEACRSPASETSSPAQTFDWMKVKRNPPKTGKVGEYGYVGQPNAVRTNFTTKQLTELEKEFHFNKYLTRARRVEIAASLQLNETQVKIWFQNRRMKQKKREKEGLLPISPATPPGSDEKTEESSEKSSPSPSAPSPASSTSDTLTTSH

Assays:
Experiment in all cases: pull-down; GST-hORF and FLAG-Hoxa1 co-expressed in COS7 or HEK293T; cleared lysate (Tris-HCl pH7.5 20mM, NaCl 120mM, EDTA 0.5mM, NP40 0.5%, glycerol 10%) overnight on glutathione-agarose beads, 3 washes; anti-FLAG western blot
[1] = target: T1, PR domain containing 14 (human) (UniProt Q9GZV8)
T1 sequence: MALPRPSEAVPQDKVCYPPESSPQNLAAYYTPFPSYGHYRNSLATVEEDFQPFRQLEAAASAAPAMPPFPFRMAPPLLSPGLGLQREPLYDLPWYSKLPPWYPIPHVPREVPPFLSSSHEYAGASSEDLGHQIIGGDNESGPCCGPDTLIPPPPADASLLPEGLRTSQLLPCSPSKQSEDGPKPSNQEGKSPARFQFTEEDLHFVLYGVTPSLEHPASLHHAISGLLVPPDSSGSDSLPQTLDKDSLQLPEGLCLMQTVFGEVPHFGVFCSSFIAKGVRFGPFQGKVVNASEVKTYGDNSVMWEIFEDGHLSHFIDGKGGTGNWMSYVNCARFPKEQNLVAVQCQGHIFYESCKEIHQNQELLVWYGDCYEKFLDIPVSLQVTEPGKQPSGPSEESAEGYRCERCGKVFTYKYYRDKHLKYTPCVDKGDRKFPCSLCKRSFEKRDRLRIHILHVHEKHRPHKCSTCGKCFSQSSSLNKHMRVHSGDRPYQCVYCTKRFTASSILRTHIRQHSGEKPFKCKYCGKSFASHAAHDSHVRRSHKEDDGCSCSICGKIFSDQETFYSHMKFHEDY

[2] = target: T2, PBX1A (UniProt P40424)
T2 sequence: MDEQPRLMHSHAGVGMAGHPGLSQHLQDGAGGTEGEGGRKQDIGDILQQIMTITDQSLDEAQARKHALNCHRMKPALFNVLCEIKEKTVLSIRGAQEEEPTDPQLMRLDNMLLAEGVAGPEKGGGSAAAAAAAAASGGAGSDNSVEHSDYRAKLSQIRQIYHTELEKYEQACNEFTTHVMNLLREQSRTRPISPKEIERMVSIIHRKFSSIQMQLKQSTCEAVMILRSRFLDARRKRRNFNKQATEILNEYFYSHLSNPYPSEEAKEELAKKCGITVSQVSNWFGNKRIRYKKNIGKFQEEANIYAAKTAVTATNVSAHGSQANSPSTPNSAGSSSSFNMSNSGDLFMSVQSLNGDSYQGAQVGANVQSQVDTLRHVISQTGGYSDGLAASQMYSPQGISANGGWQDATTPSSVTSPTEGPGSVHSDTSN

[3] = target: T3, regulator of G-protein signaling 20 (human) (UniProt O76081)
T3 sequence: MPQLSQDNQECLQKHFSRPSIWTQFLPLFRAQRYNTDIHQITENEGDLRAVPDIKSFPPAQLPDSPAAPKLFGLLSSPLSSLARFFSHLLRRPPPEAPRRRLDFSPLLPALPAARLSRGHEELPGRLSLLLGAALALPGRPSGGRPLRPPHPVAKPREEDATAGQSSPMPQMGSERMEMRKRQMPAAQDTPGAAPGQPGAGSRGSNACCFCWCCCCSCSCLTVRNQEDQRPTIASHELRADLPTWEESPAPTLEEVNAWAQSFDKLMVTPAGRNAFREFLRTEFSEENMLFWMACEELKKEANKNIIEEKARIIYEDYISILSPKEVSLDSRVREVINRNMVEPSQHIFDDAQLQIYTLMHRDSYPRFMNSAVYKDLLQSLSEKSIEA

[4] = target: T4, family with sequence similarity 154, member A (human) (UniProt Q8IYX7)
T4 sequence: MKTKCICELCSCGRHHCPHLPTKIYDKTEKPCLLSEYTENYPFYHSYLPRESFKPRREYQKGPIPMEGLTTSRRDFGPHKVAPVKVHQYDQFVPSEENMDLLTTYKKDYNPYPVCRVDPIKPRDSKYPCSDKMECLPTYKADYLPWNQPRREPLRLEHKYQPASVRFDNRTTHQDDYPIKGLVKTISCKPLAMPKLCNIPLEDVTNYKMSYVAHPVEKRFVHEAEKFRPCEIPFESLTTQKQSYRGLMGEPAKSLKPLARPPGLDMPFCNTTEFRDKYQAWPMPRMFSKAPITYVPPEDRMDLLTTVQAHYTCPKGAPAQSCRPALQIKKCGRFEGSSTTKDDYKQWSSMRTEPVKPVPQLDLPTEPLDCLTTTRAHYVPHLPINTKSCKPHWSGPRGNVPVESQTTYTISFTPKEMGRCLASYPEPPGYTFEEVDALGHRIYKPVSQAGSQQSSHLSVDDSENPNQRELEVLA

[5] = target: T5, keratin 81 (human) (UniProt Q14533)
T5 sequence: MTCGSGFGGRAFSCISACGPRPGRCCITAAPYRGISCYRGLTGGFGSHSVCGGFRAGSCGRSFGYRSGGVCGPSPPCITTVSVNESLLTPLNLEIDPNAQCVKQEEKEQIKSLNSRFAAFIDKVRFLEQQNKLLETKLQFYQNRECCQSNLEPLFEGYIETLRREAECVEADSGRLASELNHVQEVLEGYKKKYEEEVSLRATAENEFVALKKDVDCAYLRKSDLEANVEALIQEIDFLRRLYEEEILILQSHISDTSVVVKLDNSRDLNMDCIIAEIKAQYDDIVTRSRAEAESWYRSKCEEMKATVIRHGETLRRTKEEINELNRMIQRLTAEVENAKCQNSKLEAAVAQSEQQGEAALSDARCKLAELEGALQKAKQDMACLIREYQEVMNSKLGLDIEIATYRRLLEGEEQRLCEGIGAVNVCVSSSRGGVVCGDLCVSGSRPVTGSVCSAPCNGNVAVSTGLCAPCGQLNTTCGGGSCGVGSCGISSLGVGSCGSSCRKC

binding [1]: binds | binding [2]: binds | binding [3]: binds | binding [4]: binds | binding [5]: binds
Substance: FLAG-Hoxa1 (from UniProt P09022 1-331)
